Source: PMC6531784, “Discovering metabolic disease gene interactions by correlated effects on cellular morphology” (Molecular Metabolism, 2019)
No constants are given. Whether binding was seen depends on the method and setting. In cells and extracts the contact can be indirect. Binding can be weak; no strength is given. Sequences can lack the tags named with a protein.

Molecular target: T1, FLAG-perilipin (in HEK293 cells) (UniProt O60240)
T1 sequence: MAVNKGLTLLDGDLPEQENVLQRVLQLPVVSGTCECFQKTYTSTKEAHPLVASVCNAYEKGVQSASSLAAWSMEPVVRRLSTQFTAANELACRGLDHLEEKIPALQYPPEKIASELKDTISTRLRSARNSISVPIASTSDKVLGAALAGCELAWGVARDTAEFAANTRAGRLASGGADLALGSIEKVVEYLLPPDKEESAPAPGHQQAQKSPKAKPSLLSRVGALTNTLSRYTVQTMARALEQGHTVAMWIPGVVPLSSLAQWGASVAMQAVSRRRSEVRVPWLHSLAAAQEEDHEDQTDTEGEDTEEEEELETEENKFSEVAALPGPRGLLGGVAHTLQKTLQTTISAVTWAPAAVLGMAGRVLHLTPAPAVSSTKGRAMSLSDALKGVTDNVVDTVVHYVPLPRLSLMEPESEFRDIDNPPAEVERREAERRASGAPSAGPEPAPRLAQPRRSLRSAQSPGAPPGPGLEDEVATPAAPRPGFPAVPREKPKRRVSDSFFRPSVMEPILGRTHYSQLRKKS
Assay: co-IP; HEK293 cells co-transfected; lysis in 50 mM n-octyl-b-D-glucopyranoside, 50 mM Tris pH 6.8, 150 mM NaCl, 1 mM EDTA; anti-FLAG-agarose 2 h at 4 °C, elution with 3xFLAG peptide; blots for Myc, FLAG and calnexin

Substance | binding
Myc-seipin mutant lacking the C terminus (ΔCT) (domain or fragment) | binds
Myc-seipin mutant lacking the N terminus (ΔNT) (domain or fragment) | binds
